These are yes or no findings as the source states them, for the method shown. In cells and extracts the contact can be indirect. Binding can be weak; no strength is given.
What was measured:
[1] = biological target: G domain of SEPT6 (human) (UniProt Q14141); experiment: SEC-MALS
[2] = biological target: G domain of SEPT11 (human) (UniProt Q9NVA2); experiment: SEC-MALS
[3] = biological target: G domain of SEPT8 (human) (UniProt Q92599); experiment: SEC-MALS
[4] = biological target: G domain of SEPT11 (human) (UniProt Q9NVA2); experiment: crystal structure
[5] = biological target: G domain of SEPT8 (human) (UniProt Q92599); experiment: crystal structure

The chains behind the UniProt entries cited, without tags or fusion partners. Where a name states a change or a piece, a line headed by the entry shows the natural chain unless it says otherwise.
UniProt Q14141: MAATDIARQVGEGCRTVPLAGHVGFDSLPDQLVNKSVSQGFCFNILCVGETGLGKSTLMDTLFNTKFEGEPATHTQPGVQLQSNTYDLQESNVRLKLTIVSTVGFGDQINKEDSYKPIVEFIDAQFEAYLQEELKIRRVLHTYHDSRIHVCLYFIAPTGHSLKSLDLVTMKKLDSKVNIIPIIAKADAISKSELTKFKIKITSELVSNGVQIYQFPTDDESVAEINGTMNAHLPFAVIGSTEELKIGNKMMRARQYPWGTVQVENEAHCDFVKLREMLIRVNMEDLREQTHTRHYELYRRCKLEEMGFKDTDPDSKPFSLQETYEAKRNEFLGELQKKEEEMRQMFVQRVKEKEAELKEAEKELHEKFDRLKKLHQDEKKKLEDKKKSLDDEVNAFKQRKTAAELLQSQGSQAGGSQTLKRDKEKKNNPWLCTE
UniProt Q9NVA2: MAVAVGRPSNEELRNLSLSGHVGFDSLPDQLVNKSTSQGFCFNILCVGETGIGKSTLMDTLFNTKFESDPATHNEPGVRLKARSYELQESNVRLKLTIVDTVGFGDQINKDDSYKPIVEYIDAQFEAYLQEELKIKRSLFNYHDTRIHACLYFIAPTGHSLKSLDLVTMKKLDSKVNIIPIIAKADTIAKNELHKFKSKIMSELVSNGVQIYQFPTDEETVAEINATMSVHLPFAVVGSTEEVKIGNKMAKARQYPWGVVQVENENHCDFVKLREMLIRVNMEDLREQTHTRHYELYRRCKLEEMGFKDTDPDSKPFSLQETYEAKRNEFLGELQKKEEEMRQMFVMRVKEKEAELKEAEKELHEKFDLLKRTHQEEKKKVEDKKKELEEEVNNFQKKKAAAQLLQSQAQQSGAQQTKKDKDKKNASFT
UniProt Q92599: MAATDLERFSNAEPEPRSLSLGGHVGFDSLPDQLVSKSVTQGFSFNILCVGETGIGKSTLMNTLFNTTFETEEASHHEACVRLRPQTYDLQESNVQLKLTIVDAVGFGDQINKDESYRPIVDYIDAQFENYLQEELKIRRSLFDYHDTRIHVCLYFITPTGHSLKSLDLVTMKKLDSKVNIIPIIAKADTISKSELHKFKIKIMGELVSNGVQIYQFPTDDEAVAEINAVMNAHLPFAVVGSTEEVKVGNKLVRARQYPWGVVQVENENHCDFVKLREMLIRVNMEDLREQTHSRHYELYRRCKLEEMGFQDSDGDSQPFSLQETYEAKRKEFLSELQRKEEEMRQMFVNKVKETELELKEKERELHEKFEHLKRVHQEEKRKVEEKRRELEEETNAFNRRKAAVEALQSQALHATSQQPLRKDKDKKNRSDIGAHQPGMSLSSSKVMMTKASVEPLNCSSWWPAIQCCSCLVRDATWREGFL

Measured: binding

G domain of SEPT4 (from UniProt O43236-1) (domain or fragment)
binds: [1] | [2] | [3]

G domain of SEPT2 (from UniProt Q15019-1) (domain or fragment)
binds: [2] | [3] | [4] | [5]

G domain of SEPT5 (from UniProt Q99719-1) (domain or fragment)
binds: [1] | [2] | [3]
